Reference: PubChem BioAssay AID1671190 (National Center for Advancing Translational Sciences (NCATS), 2021)
Values joined by “and” are separate entries in the source; they are usually repeats but may differ in a detail not shown here. Identical values can stand only once. Among all 580,000 compounds or so, about 6,100 (1.1%) were called active. Inconclusive means that the source gave no clear call. Such entries were picked first, then a sample of the others. Calls come from the whole dose curve; as a rule, active = well fitted inhibition curve with a large enough effect; inconclusive = small, poorly fitted or top-dose-only effect, or another doubt; inactive = no such curve, though single readings can be large or run the other way. Potencies beside an inconclusive call are fits to weak or partial responses and may not hold up.

Amino acid sequences for entries named in this document (tags omitted). A change or cut given only in a name is not applied to a line headed by its entry.
UniProt P18054: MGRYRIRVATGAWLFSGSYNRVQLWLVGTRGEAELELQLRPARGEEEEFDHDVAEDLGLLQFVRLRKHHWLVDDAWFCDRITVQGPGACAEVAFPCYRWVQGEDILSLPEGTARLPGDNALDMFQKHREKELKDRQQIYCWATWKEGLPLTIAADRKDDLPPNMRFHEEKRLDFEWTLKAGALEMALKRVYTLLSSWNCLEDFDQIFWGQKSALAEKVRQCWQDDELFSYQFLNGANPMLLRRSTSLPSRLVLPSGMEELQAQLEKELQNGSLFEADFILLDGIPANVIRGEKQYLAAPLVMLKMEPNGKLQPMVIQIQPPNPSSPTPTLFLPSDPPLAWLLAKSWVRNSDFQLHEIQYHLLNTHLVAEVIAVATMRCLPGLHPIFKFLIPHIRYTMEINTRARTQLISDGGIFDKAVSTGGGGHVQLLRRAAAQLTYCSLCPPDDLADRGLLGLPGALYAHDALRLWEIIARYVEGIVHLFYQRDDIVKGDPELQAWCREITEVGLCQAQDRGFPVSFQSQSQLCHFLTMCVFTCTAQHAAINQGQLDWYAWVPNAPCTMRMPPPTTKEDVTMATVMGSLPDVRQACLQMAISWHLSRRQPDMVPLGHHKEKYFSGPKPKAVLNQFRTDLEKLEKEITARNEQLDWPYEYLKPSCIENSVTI

target: Polyunsaturated fatty acid lipoxygenase ALOX12 (Homo sapiens) (UniProt P18054); experiment: Primary qHTS assay for inhibitors of human arachidonate 12S-lipoxygenase (ALOX12): Round 2; details: purified 12hLO, xylenol orange hydroperoxide absorbance; activity change, negative = inhibition: at 108 µM (top of the series) unless noted
In short: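 Purified human 12hLO at 150 nM in 25 mM Hepes, 0.01% Triton X-100, pH 7.0, preincubated 15 min at room temperature with compound. Reaction started with 40 uM arachidonic acid, 30 min at room temperature. Hydroperoxide measured by Fe-xylenol orange, 573/405 nm absorbance ratio.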
% is set by controls: 0 for no effect and ±100 for the full control effect; potency is the fitted concentration of half-maximal effect.

SMILES	Potency	activity change, negative = inhibition
Cc1nc2c(C(=O)NCc3ccccc3Cl)c[nH]n2c(=O)c1Cl	inconclusive: 50.1 µM [inhibitor, partial curve, poor fit]	
O=C(NNC(=O)C1COc2ccccc2O1)c1ccccc1O (stereo not given)	inactive	
COc1ccc(C2NC(=O)c3ccccc3N2)cc1OC (stereo not given)	inconclusive: 3.98 µM [inhibitor, full curve, poor fit]	
CSc1ccc(/C=N\Nc2nncn2N)cc1	inconclusive: 31.6 µM [inhibitor, single point]	
Cc1ccc(NC(=O)C2CCCN(c3cnccn3)C2)cc1Cl (stereo not given)	inconclusive: 112 µM [inhibitor, partial curve, poor fit]	
Cc1ccc(CS(=O)Cc2ccc(C(=O)NCc3ccccc3Cl)o2)cc1 (stereo not given)	inconclusive: 100 µM [inhibitor, partial curve, poor fit]	
O=C(O)C/C(=C/c1cccc(/C=C(/CC(=O)O)c2nc3ccccc3o2)c1)c1nc2ccccc2o1	inactive	
Cc1ccsc1C(=O)N1CCc2nn(CC3CC3)c(=O)n2CC1	inactive	
COc1cc2c(cc1OC)C(=S)NC(C)(C)C2	inconclusive: 44.7 µM [inhibitor, partial curve, poor fit]	
S=c1nc(-c2ccccc2)oc2c1CCCC2	inactive	
Cc1ccc(CN[C@@H]2CO[C@H](CNS(=O)(=O)c3ccc(C)cc3)[C@H]2O)cc1	active: 28.2 µM	
O=C(C(=O)c1cccnc1)c1cccnc1	inconclusive: 39.8 µM [inhibitor, partial curve, poor fit]	
O=C(COc1ccc(-n2cnnn2)cc1)NC1CC1	inactive	
CN(Cc1ccccc1)C(=O)C[C@@H]1O[C@H](CNC(=O)c2ccno2)[C@@H](O)[C@H]1O	active: 28.2 µM	
CCCCN(CC)C(=S)Nc1ccc2nc(N3CCN(C)CC3)cc(C)c2c1	inactive	
COc1ccc(N(C(=O)Cn2nnc(-c3ccc(F)cc3)n2)C(C)C(=O)NC2CCCC2)cc1OC (stereo not given)	inactive	
CCc1cc(-c2n[nH]c(=S)n2N)n(C)n1	inconclusive: 44.7 µM [inhibitor, partial curve, poor fit]	
COc1ccc(-c2cc(C)no2)cc1S(=O)(=O)N1CC(=O)Nc2ccccc21	inactive	
COc1ccc(CCN(Cc2ccccn2)C(=S)Nc2ccccc2Cl)cc1OC	inconclusive: 3.98 µM [inhibitor, partial curve, poor fit]	
CCCCNc1nc(-c2ccc3c(c2)CC(C)N3S(C)(=O)=O)cs1 (stereo not given)	inconclusive: 31.6 µM [inhibitor, partial curve, poor fit]	
Cc1nnc(SCC(=O)Nc2cccc(S(=O)(=O)N(C)c3ccccc3)c2)s1	inactive	
CN(Cc1ccco1)c1ncnc2ccc(-c3ccccc3Cl)cc12	active: 28.2 µM and inconclusive: 44.7 µM [inhibitor, partial curve, poor fit]	
CSCCC(NC(=O)c1ccco1)C(=O)O (stereo not given)	inconclusive: 39.8 µM [inhibitor, partial curve, poor fit]	

SMILES	Potency	activity change, negative = inhibition
CN1C(=O)C(O)(CC(=O)c2ccccc2O)c2cc(Br)ccc21 (stereo not given)	inactive	
O=C(CNCc1cccs1)Nc1ccc(N2CCCCCC2)cc1	inconclusive: 35.5 µM [inhibitor, partial curve, poor fit]	
CNC(=O)CCc1[nH]c2ccccc2c1Sc1ccccc1	inconclusive: 44.7 µM [inhibitor, partial curve, poor fit]	
Cn1cnnc1C1CCCN(S(=O)(=O)N2CCCCCC2)C1 (stereo not given)	inactive	
CC1=NN(c2ccc(C)c(C)c2)C(=O)/C1=C\C=C\c1ccc([N+](=O)[O-])o1	inconclusive: 39.8 µM [inhibitor, partial curve]	
CC1(C)CCC(=NNC(N)=S)CC1	inconclusive: 44.7 µM [inhibitor, partial curve, poor fit]	
NC(N)=Nc1nc(=O)c2ccccc2s1	inconclusive: 39.8 µM [inhibitor, partial curve, poor fit]	
CN(C)c1ccc(/C=N/Nc2ccccc2Cl)cc1	inconclusive: 39.8 µM [inhibitor, partial curve, poor fit]	
CCN(CC)CCNc1ccc(CO)c2oc3ccccc3c(=O)c12	inconclusive: 79.4 µM [inhibitor, single point]	
CCc1ccc(/C=C/c2c([N+](=O)[O-])c(=O)n(C)c(=O)n2C)cc1	inactive	
Cc1cc(NC(=O)Cn2cnc3c2c(=O)n(C)c(=O)n3C)ccc1Br	inactive	
CSc1nn(Cc2ccccc2C)c(NC(C)=O)c1S(=O)(=O)c1ccc(C)cc1	inconclusive: 100 µM [inhibitor, partial curve, poor fit]	
CCSc1nc2ccccc2n1S(=O)(=O)c1ccccc1	inconclusive: 31.6 µM [inhibitor, single point]	
CC(=O)N1CCN(c2oc(/C=C/c3ccc(F)cc3)nc2C#N)CC1	inactive	
O=C1CCC2(CNC(=O)c3ccoc3)CCC=C2N1 (stereo not given)	inactive	
Cc1cc(C)n2ncc(-c3noc(C(=O)NCc4ccco4)n3)c2n1	inconclusive: 28.2 µM [inhibitor, partial curve]	
COc1ccc2sc(NC(C)=O)nc2c1	inconclusive: 2.82 µM [inhibitor, single point]	
Nc1nc(-c2ccccc2Cl)cs1	inconclusive: 39.8 µM [inhibitor, partial curve, poor fit]	
Cc1ccc(C(=O)/C=C/c2cccc(NC(=O)C(F)(F)F)c2)o1		inconclusive: -62.8% [inhibitor]
Cc1ccc(C(=O)c2nc3c(n2O)CCCC3)cc1	inconclusive: 4.47 µM [inhibitor, full curve, poor fit]	
Cc1ccc(NC(=O)c2cc(S(=O)(=O)N3CCC(C)CC3)cn2C)cc1Cl	inconclusive: 50.1 µM [inhibitor, partial curve, poor fit]	
Cc1cc2cc(CCNS(=O)(=O)c3ccc(Br)cc3)c(=O)[nH]c2cc1C	inconclusive: 35.5 µM [inhibitor, partial curve]	
